Values joined by “and” are separate entries in the source; they are usually repeats but may differ in a detail not shown here. Identical values can stand only once.
test system: brain; experiment: In vivo panning of phage peptide display libraries, brain as selected organ, kidney as control organ; set-up: species or system mice; settings: 73 cloned phage recovered from brain, second and third rounds of in vivo panning
Description: (§1) A mixture of phage libraries containing 1×10^14 TU was diluted in 200 μl DMEM and injected into the tail vein of anesthetized BALB\c mice (2 month old females; Jackson Laboratories; Bar Harbor Me.); Avertin (0.015 ml/g) was used as anesthetic. After 1-4 minutes, mice were snap frozen in liquid nitrogen. To recover the phage, carcasses were partially thawed at room temperature for 1 hr, organs were collected and weighed, then were ground in 1 ml DMEM-PI (DMEM containing protease inhibitors (PI); phenylmethylsulfonyl fluoride (PMSF; 1 mM), aprotinin (20 μg/ml), leupeptin (1 μg/ml)).
(§2) Organ samples were washed 3 times with ice cold DMEM-PI containing 1% bovine serum albumin (BSA), then directly incubated with 1 ml K91-kan bacteria for 1 hr. Ten ml NZY medium containing 0.2 μg/ml tetracycline (NZY/tet) was added to the bacterial culture, the mixture was incubated in a 37° C. shaker for 1 hr, then 200 μl aliquots were plated in agar plates containing 40 μg/ml tetracycline (tet/agar).
(§3) Individual colonies containing phage recovered from brain or kidney-were grown for 16 hr in 5 ml NZY/tet. The bacterial cultures obtained from the individual colonies were pooled and the amplified eluates were injected into mice as described above for a second round of in vivo panning. A third round of panning also was performed. Phage DNA was purified from individual bacterial colonies obtained from the second and the third round of in vivo panning and the DNA sequences encoding the peptides expressed by selected phage were determined (see Koivunen et al., supra, 1994b).
Three rounds of in vivo panning in mice were performed. Kidney was used as a control organ. Mice were injected with two different mixtures of phage libraries. The first mixture contained libraries encoding CX9 (SEQ ID NO: 39), CX5C (SEQ ID NO: 36), CX6C (SEQ ID NO: 37) and CX7C (SEQ ID NO: 38) peptides (CX5-7/CX9 mixture; SEQ ID NOS: 36-39). The second mixture contained libraries encoding X2CX14CX2 (SEQ ID NO: 40) and X2CX18 (SEQ ID NO: 41) peptides (X2CX18/X2CX14CX2 mixture; SEQ ID NOS: 40 and 41).
The phage library mixtures were administered to mice via tail vein injection. Phage input was 1×10^16 TU of the CX5-7/CX9 (SEQ ID NOS: 36-39) mixture or 1×10^14 TU of the X2CX18/X2CX14CX2 (SEQ ID NOS: 40 and 41) mixture. Phage were recovered from the brains of the injected mice, the recovered phage were amplified in vitro, then a second and a third round of in vivo panning was performed. During the second and third rounds of panning, phage were recovered from brain and from kidney and the number of TU from each organ was compared. […] Following administration of the X2CX18/X2CX14CX2 (SEQ ID NOS: 40 and 41) mixture, an 11× and 8× enrichment of phage homing to the brain as compared to kidney occurred during the second and third rounds of panning, respectively. Thus, substantial enrichment of phage binding to the brain was observed following the second and third rounds of in vivo panning.
The amino acid sequences were determined for the inserts present in 73 cloned phage that were recovered from brain during the second and third rounds of in vivo panning. Peptides containing an SRL motif predominated (36% of the clones sequenced; see SEQ ID NOS: 1, 3 and 5), followed by peptides containing the VLR motif (20.5% of the clones; see SEQ ID NOS: 4 and 16) and the peptide CENWWGDVC (SEQ ID NO: 2; 19% of the clones; see Table 1). […] Nine other sequences appeared only one time each and were not characterized further.

Substance | % PHAGE (of the clones sequenced)
CANAQSHC (displayed on phage) [peptide from phage recovered from brain] | 1.4%
CENWWGDVC (displayed on phage) | 19% and 19.2%
CETLPAC (displayed on phage) [peptide from phage recovered from brain] | 1.4%
CGNPSYRC (displayed on phage) [peptide from phage recovered from brain] | 1.4%
CGRSLDAC (displayed on phage) [peptide from phage recovered from brain] | 1.4%
CGVRLGC (displayed on phage) [peptide from phage recovered from brain] | 4.1%
CKDWGRIC (displayed on phage) [peptide from phage recovered from brain] | 2.8%
CLDWGRIC (displayed on phage) [peptide from phage recovered from brain] | 2.8%
CLSSRLDAC (displayed on phage or cyclic) [also synthesized as cyclic peptide] | 8.2%
CNSRLHLRC (displayed on phage) | 21.9%
CNSRLQLRC (displayed on phage) [peptide from phage recovered from brain] | 5.5%
CRHWFDVVC (displayed on phage) [peptide from phage recovered from brain] | 1.4%
CRTGTLFC (displayed on phage) [peptide from phage recovered from brain] | 1.4%
CTRITESC (displayed on phage) [peptide from phage recovered from brain] | 2.8%
CVLRGGRC (displayed on phage) [peptide from phage recovered from brain] | 6.8%
LNCDYQGTNPATSVSVPCTV (displayed on phage) [peptide from phage recovered from brain] | 1.4%
WRCVLREGPAGGCAWFNRHRL (displayed on phage) | 13.7%
YPCGGEAVAGVSSVRTMCSE (displayed on phage) [peptide from phage recovered from brain] | 1.4%

test system: kidney; experiment: In vivo panning of phage peptide display libraries, kidney as selected organ, brain as control organ; set-up: species or system mice; settings: 48 cloned phage that homed to kidney
Description: as §1, §2, §3
The same methodology used to isolate phage expressing brain homing peptides was used to isolate phage expressing peptides that home to kidney. In these experiments, brain was used as the control organ. A mixture of the CX5C (SEQ ID NO: 36) and the CX6C (SEQ ID NO: 37) libraries was administered as described above. Homing of phage to the kidney was obtained and an approximately 3× to 7× enrichment of phage homing to kidney was observed following a second round of in vivo panning.
The amino acid sequences were determined for the inserts in 48 cloned phage that homed to kidney. The peptides expressed by these phage were represented by two predominant sequences, CLPVASC (SEQ ID NO: 21; 46% of the clones sequenced) and CGAREMC (SEQ ID NO: 22; 17% of the clones; see Table 2). In addition, the peptide CKGRSSAC (SEQ ID NO: 23) appeared three times and three other peptides were present twice each.

Substance | % PHAGE (of the clones sequenced)
CFVGHDLC (displayed on phage) [peptide from phage recovered from kidney] | 2.1%
CGAREMC (displayed on phage) | 17% and 16.7%
CKGRSSAC (displayed on phage) | 6.2%
CKLLSGVC (displayed on phage) [peptide from phage recovered from kidney] | 2.1%
CKLMGEC (displayed on phage) [peptide from phage recovered from kidney] | 2.1%
CLGRSSVC (displayed on phage) [peptide from phage recovered from kidney] | 4.2%
CLMGVHC (displayed on phage) [peptide from phage recovered from kidney] | 2.1%
CLPVASC (displayed on phage) | 46% and 45.8%
CMGRWRLC (displayed on phage) [peptide from phage recovered from kidney] | 2.1%
CRCLNVC (displayed on phage) [peptide from phage recovered from kidney] | 2.1%
CRRFQDC (displayed on phage) [peptide from phage recovered from kidney] | 2.1%
CTSPGGSC (displayed on phage) [peptide from phage recovered from kidney] | 4.2%
CVAWLNC (displayed on phage) [peptide from phage recovered from kidney] | 2.1%
CVGECGGC (displayed on phage) [peptide from phage recovered from kidney] | 2.1%
CWARAQGC (displayed on phage) [peptide from phage recovered from kidney] | 4.2%

same assay, conditions: kidney homing peptides that were sequenced

Substance | fraction of the sequenced kidney homing peptides having the sequence
CLPVASC (displayed on phage) | half

Reference: US7018615B2, “Method of identifying molecules that home to a selected organ in vivo” (The Burnham Institute, priority 1995, dated 2006)
